Data taken from patent US10450368.
Results are given in words; binding and its absence hold for the method and conditions named.

Sequences of proteins named here, by UniProt entry; tags and fusion partners are left off.
UniProt P11387: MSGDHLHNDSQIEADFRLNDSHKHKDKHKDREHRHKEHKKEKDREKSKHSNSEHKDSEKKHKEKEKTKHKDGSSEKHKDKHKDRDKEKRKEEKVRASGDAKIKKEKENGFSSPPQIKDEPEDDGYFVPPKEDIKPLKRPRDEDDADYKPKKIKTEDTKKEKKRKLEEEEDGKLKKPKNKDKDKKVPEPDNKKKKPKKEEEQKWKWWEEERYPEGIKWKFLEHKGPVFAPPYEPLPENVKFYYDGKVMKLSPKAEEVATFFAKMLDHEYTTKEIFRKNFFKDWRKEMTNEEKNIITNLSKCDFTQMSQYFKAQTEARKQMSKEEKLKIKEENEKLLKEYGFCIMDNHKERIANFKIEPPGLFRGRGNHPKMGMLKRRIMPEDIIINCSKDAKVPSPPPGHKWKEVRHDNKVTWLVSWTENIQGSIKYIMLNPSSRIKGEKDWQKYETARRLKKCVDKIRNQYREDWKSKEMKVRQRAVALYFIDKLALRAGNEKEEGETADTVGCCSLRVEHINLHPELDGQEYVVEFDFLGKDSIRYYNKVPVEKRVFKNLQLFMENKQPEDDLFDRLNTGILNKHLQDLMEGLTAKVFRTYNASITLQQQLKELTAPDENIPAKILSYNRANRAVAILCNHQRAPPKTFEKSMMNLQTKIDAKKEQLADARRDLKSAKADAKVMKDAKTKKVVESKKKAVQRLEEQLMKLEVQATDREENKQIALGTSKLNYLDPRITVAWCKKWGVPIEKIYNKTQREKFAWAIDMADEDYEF

Biological target: Scl-70 (UniProt P11387)
Assay: condition: <100 relative luminescence units; up to 50 ug/ml; AtheNA Multi-Lyte ANA

B1: CH236 (antibody, V domains shown)
VH: QVQLVQSGAAVKRPGASVTISCRASGYTFTTYYIHWVRQAPGQRLELMGMIDPSRGRTDYAQKFQGRVTMSRDTSTSTLYMELRSLRPDDTALYYCVRNVGTEGSLLHYDYWGQGTLVTVSS
VL: EIVLTQSPATLSVSPGERVTLSCRASQSVRNNLAWYRQKRGQAPRLLIYGASTRATGIPARFSGSGSGTEFTLTISSMQSEDFAVYYCQQYNNWWTFGQGTKVEIK
binding: no binding
